# Test results published in patent US5484770A (Hafslund Nycomed Bioreg AS, priority 1988, dated 1996).
# Where no end group is shown, it is not given here. [ ]: non-standard residue; d: D form. pGlu = O=C1CC[C@@H](C(=O)O)N1
# Assays:
# [1] = general procedure: solution-phase peptide synthesis; p-nitrophenyl active esters (solution phase); Fmoc amino acid OPfp esters (solid); conditions: for step yield: coupling step
# [2] = Fmoc solid-phase peptide synthesis; p-nitrophenyl active esters (solution phase); Fmoc amino acid OPfp esters (solid); conditions: whole synthesis
Substance,step yield [1] [%],"final HPLC purity ([1]; whole synthesis, HPLC RP18, 214 nm)",isolated yield [2] [%]
BENZYLOXYCARBONYL-L-PYROGLUTAMYL-(γ-BENZYL)-L-GLUTAMYL-(β-BENZYL)-L-ASPARTYL-(S-p-METHOXYBENZYL)-L-CYSTEINYL-(ε-BENZYL-OXYCARBONYL)-L-LYSINE BENZYLESTER (IV),96,–,–
[pGlu]EDSK,–,More than 92%,44
t-Boc-(γ-BENZYL)-L-GLUTAMYL-(β-BENZYL)-L-ASPARTYL-(S-p-METHOXYBENZYL)-L-CYSTEINYL-(ε-BENZYLOXYCARBONYL)-L-LYSINE BENZYLESTER (III),100,–,–
